Reference: paper PMC10746525
Results are given in words; binding and its absence hold for the method and conditions named. Some results given as binding are weak or reduced against the parent protein; the word gives no strength.

Biological target: TRAK1_(99-532) (human) (UniProt Q9UPV9)
Assay: mass photometry; Refeyn TwoMP, 125-150 nM protein, 100 mM NaCl, 50 μM MgCl2, 50 μM GTP with 1 mM EGTA or 100 μM CaCl2; both purified

binding: binds weakly
B1: TRAK1_(99-532) (domain or fragment, UniProt Q9UPV9 99-532)
chain: AERVGQMTKTYNDIDAVTRLLEEKERDLELAARIGQSLLKKNKTLTERNELLEEQVEHIREEVSQLRHELSMKDELLQFYTSAAEESEPESVCSTPLKRNESSSSVQNYFHLDSLQKKLKDLEEENVVLRSEASQLKTETITYEEKEQQLVNDCVKELRDANVQIASISEELAKKTEDAARQQEEITHLLSQIVDLQKKAKACAVENEELVQHLGAAKDAQRQLTAELRELEDKYAECMEMLHEAQEELKNLRNKTMPNTTSRRYHSLGLFPMDSLAAEIEGTMRKELQLEEAESPDITHQKRVFETVRNINQVVKQRSLTPSPMNIPGSNQSSAMNSLLSSCVSTPRSSFYGSDIGNVVLDNKTNSIILETEAADLGNDERSKKPGTPGTPGSHDLETALRRLSLRRENYLSERRFFEEEQERKLQELAEKGE
